For assay [1], the target named is elongation factor EF-Ts (E. coli) (UniProt P0A6P1). As to the kind of experiment: co-purification on HiTrap Q anion exchange and HiTrap SP cation exchange columns, SDS-PAGE.
In assay [2] the target is elongation factor EF-Tu (E. coli) (UniProt P0CE47). The assay is described as above.

Sequences of proteins named here, by UniProt entry; tags and fusion partners are left off. Residues count along the entry.
UniProt P0A6P1, residues 2-283: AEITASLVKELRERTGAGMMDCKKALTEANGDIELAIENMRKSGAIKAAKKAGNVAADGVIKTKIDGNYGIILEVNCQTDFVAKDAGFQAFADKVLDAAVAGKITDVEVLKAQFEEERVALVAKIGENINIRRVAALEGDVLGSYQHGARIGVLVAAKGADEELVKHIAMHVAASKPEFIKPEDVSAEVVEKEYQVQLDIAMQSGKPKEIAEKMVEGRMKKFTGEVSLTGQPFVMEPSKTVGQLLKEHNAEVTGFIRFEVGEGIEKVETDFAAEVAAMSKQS
UniProt P0CE47, residues 2-394: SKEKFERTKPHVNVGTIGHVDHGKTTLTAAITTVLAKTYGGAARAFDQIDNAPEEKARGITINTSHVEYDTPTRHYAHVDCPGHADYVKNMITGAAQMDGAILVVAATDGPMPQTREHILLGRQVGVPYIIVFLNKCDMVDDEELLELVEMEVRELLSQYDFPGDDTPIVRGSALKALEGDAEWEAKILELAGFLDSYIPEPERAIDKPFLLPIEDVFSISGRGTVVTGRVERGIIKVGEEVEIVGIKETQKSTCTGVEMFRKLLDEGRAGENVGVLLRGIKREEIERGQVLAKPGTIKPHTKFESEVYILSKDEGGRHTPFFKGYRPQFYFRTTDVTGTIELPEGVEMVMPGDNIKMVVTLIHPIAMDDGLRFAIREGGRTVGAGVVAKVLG
UniProt P14647: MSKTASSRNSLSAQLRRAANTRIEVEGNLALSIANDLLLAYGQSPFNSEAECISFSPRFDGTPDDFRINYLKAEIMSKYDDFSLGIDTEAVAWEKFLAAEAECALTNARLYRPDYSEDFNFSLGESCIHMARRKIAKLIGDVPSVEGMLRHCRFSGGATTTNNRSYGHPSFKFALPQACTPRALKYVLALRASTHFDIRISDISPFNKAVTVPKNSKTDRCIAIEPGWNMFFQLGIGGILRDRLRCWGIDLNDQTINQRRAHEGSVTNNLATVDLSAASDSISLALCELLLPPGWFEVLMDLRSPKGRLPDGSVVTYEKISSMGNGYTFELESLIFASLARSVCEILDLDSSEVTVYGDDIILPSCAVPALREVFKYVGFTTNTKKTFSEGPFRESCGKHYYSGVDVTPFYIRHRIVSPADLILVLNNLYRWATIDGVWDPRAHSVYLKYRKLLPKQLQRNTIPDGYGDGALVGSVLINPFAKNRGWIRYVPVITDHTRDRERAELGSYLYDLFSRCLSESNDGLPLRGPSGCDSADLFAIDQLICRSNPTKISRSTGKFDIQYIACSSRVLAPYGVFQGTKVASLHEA

These are yes or no findings as the source states them, for the method shown. Binding seen in cells or lysates may run through a third protein. Some results given as binding are weak or reduced against the parent protein; the word gives no strength.

In the case of “Qβ replicase β subunit (from UniProt P14647 1-589) (enzyme)”, the binding entry in assay [1] and in assay [2] was “binds” each time.

The record behind these values is patent publication US20100151518A1.
